Measured values as given in patent US20220073618A1.
Where a chain is given by its changes, count along the chain named. These are yes or no findings as the source states them, for the method shown. A result given as binding can be weak or reduced; the word gives no strength.

B1: AH01946 (antibody, human IgG1, V domains shown)
VH: QVQLQESGPGLVKPSQTLSLTCTVSGYSITSGYTWHWIRQHPGKGLEWIGYIHYSGSTKYNPSLKSRVTISRDTSKNQFSLKLSSMTAADTAVYYCARNSLFASWGQGTLVTVSS
VL: DIVLTQSPDSLAVSLGERATINCRASESVDTYGDSFMHWFQQKPGQPPKLLIYRASNLESGVPDRFSGSGSGTDFTLTISSVQAEDVAVYYCQQSNEAPYTFGGGTKLEIK
B2: AH02029 (antibody, human IgG1, V domains shown)
VH: B1 VH with S25T, T69S, M86V
VL: B1 VL with F40Y, V82L

Molecular target: monkey PD-L1 on cell surface (monkey)
Test: flow cytometry on CHO cells overexpressing monkey PD-L1

| Binder | binding |
| --- | --- |
| B1 | binds |
| B2 | binds |
